Data published in PubChem BioAssay AID504444 (National Center for Advancing Translational Sciences (NCATS), 2011).
Among all 360,000 compounds or so, about 7,500 (2.1%) were called active. The shares of active, inactive and inconclusive entries below differ from those in the screen. Calls come from the whole dose curve; as a rule, active = well fitted inhibition curve with a large enough effect; inconclusive = small, poorly fitted or top-dose-only effect, or effect the other way; inactive = flat fitted curve, though single readings scatter. Where the call is inconclusive, the potency comes from a doubtful curve fit.

test: Nrf2 qHTS screen for inhibitors; settings: A549 ARE-Fluc reporter, luciferase luminescence, 18-24 h; series mostly up to 46 µM; note: nearly all actives have a fitted effect of over 60% in size
Summary of the method: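 Reporter: ARE-Fluc in A549. Exposure: 18-24 h, 37 °C, 5% CO2, 5% FBS OPTI-MEM. Readouts: fluorescent cytotoxicity (CellTiter-Fluor), then luminescent Nrf2 signal after BugLite.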
Potency is the fitted concentration of half-maximal effect.

SMILES	Potency
Cn1cc(/C=C(\NC(=O)c2ccccc2)C(=O)NCCCN2CCOCC2)c2ccccc21	inconclusive: 2.91 µM [activator, full curve, poor fit]
Cc1ccc(-c2[nH]ncc2/C=C(\C#N)C(=O)NC2CCCCC2)cc1	inconclusive: 29.1 µM [falling, single point]
O=C1CCCN2N=C(SCC(=O)Nc3cccc(F)c3)SC2=N1	inconclusive: 29.1 µM [falling, single point]
Nc1cccc(Nc2nc(OC(C(F)(F)F)C(F)(F)F)nc(OC(C(F)(F)F)C(F)(F)F)n2)c1	inconclusive: 20.6 µM [falling, single point]
O=C(c1ccc(N2CCN(C3CC(=O)N(Cc4cccs4)C3=O)CC2)cc1)c1cccnc1 (configuration not stated)	inconclusive: 29.1 µM [falling, single point]
COc1ccc(C(=O)NCCS(=O)(=O)N2CCc3ccccc3C2)c(OC)c1	inconclusive: 16.4 µM [activator, partial curve, poor fit]
CCC1(C)Cc2c(sc(NC(=S)NC(=O)c3ccccc3)c2C#N)CO1 (configuration not stated)	inconclusive: 1.03 µM [activator, full curve]
Cc1cc(C)c2cc(C(=O)Nc3ccccc3)[nH]c2c1	inconclusive: 13 µM [activator, partial curve, poor fit]
CSc1nn(Cc2ccc(F)cc2)c(N)c1S(=O)(=O)c1ccc(Cl)cc1	inconclusive: 16.4 µM [falling, single point]
COc1ccc(C(=O)Nc2ccc(N3CCN(C(=O)c4ccccc4C)CC3)cc2)cc1	inconclusive: 4.61 µM [falling, full curve, poor fit]
CC(C)CCNC(=O)c1ccc2c(c1)N(C)C(=O)c1ccccc1S2	inconclusive: 14.6 µM [falling, partial curve]
Cc1ccc2[nH]c(=O)c(C(c3nnnn3Cc3ccccc3)N3CCc4ccccc43)cc2c1 (configuration not stated)	inconclusive: 25.9 µM [falling, single point]
CC(C)c1nn2c(=O)cc(COC(=O)c3ccccc3Cl)nc2s1	inconclusive: 5.17 µM [falling, partial curve, poor fit]
COc1ccc(N2CCN(Cc3nc(-c4ccc(C)cc4)no3)CC2)cc1	inconclusive: 29.1 µM [falling, single point]
CN(C)/C=N/NC(=O)c1ccccc1Cl	inconclusive: 2.91 µM [falling, full curve, poor fit]
Cc1cc(N2CCN(c3ccccc3)CC2)n2ncnc2n1	active: 20.6 µM
O=C(CN1CCN(c2ccccc2)CC1)Nc1ccc(OCc2ccccc2)cc1	inconclusive: 29.1 µM [falling, single point]

At a glance, part of the list above.
SMILES	Potency
CC(C)CCNC(=O)c1ccc2c(c1)N(C)C(=O)c1ccccc1S2	inconclusive: 14.6 µM [falling, partial curve]
Cc1ccc2[nH]c(=O)c(C(c3nnnn3Cc3ccccc3)N3CCc4ccccc43)cc2c1 (configuration not stated)	inconclusive: 25.9 µM [falling, single point]
